Taken from: PubChem BioAssay AID1224829 (NIAID, 2016)
Assay: 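Follow-up of TLR4-NF-kappaB regulators using six separate siRNAs for each gene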 (follow-up of hits). Cell system: mouse RAW264.7 G9 macrophage reporter cells. Reagent: single siRNA against mouse genes, 100 nM. Time to read-out: 2 days of siRNA knock-down, then 40 min of LPS before fixing. Challenge: LPS (Salmonella minnesota R595) at 10 ng/ml. Measured: 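Imaging of GFP-p65 after 40 min of LPS; nuclear over perinuclear ring intensity ratio, scaled to plate median and non-targeting control wells, given as z-score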. Scale: p65 translocation z-score and gene median z-score, per vendor: higher = more nuclear NF-kappaB p65 after LPS. Active means: 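An siRNA is called active when the mean z-score of its two replicates is above 2 or below -2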. Meaning of the calls: active = changed p65 translocation (either direction); inactive = no clear change.
Shown is a random part of about 3,800 reagents. 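Calls cover raised and lowered translocation; gene median uses one vendor's three siRNAs; qiagen siRNAs acted more weakly than ambion siRNAs.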 Entries without a mark were called inactive.

| target | PubChem SID | siRNA vendor or control pool | p65 translocation z-score, replicate mean | p65 translocation z-score, replicate 1 | p65 translocation z-score, replicate 2 | gene median z-score, per vendor |
| --- | --- | --- | --- | --- | --- | --- |
| Tbck (TBC1 domain containing kinase) | SID315487536 | ambion single siRNA | -0.625 | 0.133 | -1.38 | -0.971 |
| Tbck (TBC1 domain containing kinase) | SID315487537 | ambion single siRNA | -0.504 | -0.449 | -0.559 | -0.971 |
| Tbck (TBC1 domain containing kinase) | SID315487538 | ambion single siRNA | -2.29 (active) | -2.76 | -1.81 | -0.971 |
| Gsc2 (goosecoid homebox 2) | SID315488007 | qiagen single siRNA | 2.12 (active) | 1.27 | 2.96 | 0.482 |
| Gsc2 (goosecoid homebox 2) | SID315488008 | qiagen single siRNA | -0.538 | -1.56 | 0.482 | 0.482 |
| Gsc2 (goosecoid homebox 2) | SID315488009 | qiagen single siRNA | -2.15 (active) | -2.15 | – | 0.482 |
| Or5d35 (olfactory receptor family 5 subfamily D member 35) | SID315488721 | ambion single siRNA | -1.31 | -0.293 | -2.32 | -2.99 |
| Or5d35 (olfactory receptor family 5 subfamily D member 35) | SID315488722 | ambion single siRNA | -3.72 (active) | -3.26 | -4.18 | -2.99 |
| Or5d35 (olfactory receptor family 5 subfamily D member 35) | SID315488723 | ambion single siRNA | -4.89 (active) | -7.06 | -2.72 | -2.99 |
| Or5d35 (olfactory receptor family 5 subfamily D member 35) | SID315488724 | qiagen single siRNA | 0.0656 | -0.29 | 0.422 | 0.0656 |
| Or5d35 (olfactory receptor family 5 subfamily D member 35) | SID315488725 | qiagen single siRNA | 2.1 (active) | 2.59 | 1.62 | 0.0656 |
| Or5d35 (olfactory receptor family 5 subfamily D member 35) | SID315488726 | qiagen single siRNA | -1.63 | -1.73 | -1.54 | 0.0656 |
| Csf1 (colony stimulating factor 1 (macrophage)) | SID315483999 | ambion single siRNA | 0.87 | -0.506 | 2.25 | -1.83 |
| Csf1 (colony stimulating factor 1 (macrophage)) | SID315484000 | ambion single siRNA | -2.5 (active) | -1.83 | -3.16 | -1.83 |
| Csf1 (colony stimulating factor 1 (macrophage)) | SID315484001 | ambion single siRNA | -2.98 (active) | -2.98 | – | -1.83 |
| Csf1 (colony stimulating factor 1 (macrophage)) | SID315484002 | qiagen single siRNA | -0.16 | -0.636 | 0.316 | -0.75 |
| Csf1 (colony stimulating factor 1 (macrophage)) | SID315484003 | qiagen single siRNA | -1.18 | -2.58 | 0.213 | -0.75 |
| Csf1 (colony stimulating factor 1 (macrophage)) | SID315484004 | qiagen single siRNA | -1.05 | -0.865 | -1.23 | -0.75 |
| R3hdm2 (R3H domain containing 2) | SID315486663 | ambion single siRNA | 4.62 (active) | 5.41 | 3.83 | -0.482 |
| R3hdm2 (R3H domain containing 2) | SID315486664 | ambion single siRNA | -6.25 (active) | -6.68 | -5.81 | -0.482 |
| R3hdm2 (R3H domain containing 2) | SID315486665 | ambion single siRNA | -0.482 | 0.203 | -1.17 | -0.482 |
| R3hdm2 (R3H domain containing 2) | SID315486666 | qiagen single siRNA | -1.96 | -1.64 | -2.29 | -2.4 |
| R3hdm2 (R3H domain containing 2) | SID315486667 | qiagen single siRNA | -5.32 (active) | -5.32 | – | -2.4 |
| R3hdm2 (R3H domain containing 2) | SID315486668 | qiagen single siRNA | -2.52 (active) | -2.52 | – | -2.4 |
| Hoxa2 (homeobox A2) | SID315484329 | ambion single siRNA | – | – | – | -4.5 |
| Hoxa2 (homeobox A2) | SID315484330 | ambion single siRNA | -3.38 (active) | -2.2 | -4.56 | -4.5 |
| Hoxa2 (homeobox A2) | SID315484331 | ambion single siRNA | -5.69 (active) | -6.94 | -4.44 | -4.5 |
| Hoxa2 (homeobox A2) | SID315484332 | qiagen single siRNA | 0.455 | 0.619 | 0.29 | -1.99 |
| Hoxa2 (homeobox A2) | SID315484333 | qiagen single siRNA | -0.699 | -4.39 | 2.99 | -1.99 |
| Hoxa2 (homeobox A2) | SID315484334 | qiagen single siRNA | -5.11 (active) | -4.27 | -5.95 | -1.99 |
| Gpr83 (G protein-coupled receptor 83) | SID315484203 | ambion single siRNA | -3.77 (active) | -3.77 | – | -2.77 |
| Gpr83 (G protein-coupled receptor 83) | SID315484204 | ambion single siRNA | -3.52 (active) | -2.77 | -4.28 | -2.77 |
| Gpr83 (G protein-coupled receptor 83) | SID315484205 | ambion single siRNA | -1.53 | -0.34 | -2.72 | -2.77 |
| Gpr83 (G protein-coupled receptor 83) | SID315484206 | qiagen single siRNA | -0.0707 | -0.0707 | – | -0.62 |
| Gpr83 (G protein-coupled receptor 83) | SID315484207 | qiagen single siRNA | -1.82 | -2.52 | -1.12 | -0.62 |
| Gpr83 (G protein-coupled receptor 83) | SID315484208 | qiagen single siRNA | 0.111 | -0.62 | 0.841 | -0.62 |

Continued; the last 4 above are carried over.
| target | PubChem SID | siRNA vendor or control pool | p65 translocation z-score, replicate mean | p65 translocation z-score, replicate 1 | p65 translocation z-score, replicate 2 | gene median z-score, per vendor |
| --- | --- | --- | --- | --- | --- | --- |
| Gpr83 (G protein-coupled receptor 83) | SID315484205 | ambion single siRNA | -1.53 | -0.34 | -2.72 | -2.77 |
| Gpr83 (G protein-coupled receptor 83) | SID315484206 | qiagen single siRNA | -0.0707 | -0.0707 | – | -0.62 |
| Gpr83 (G protein-coupled receptor 83) | SID315484207 | qiagen single siRNA | -1.82 | -2.52 | -1.12 | -0.62 |
| Gpr83 (G protein-coupled receptor 83) | SID315484208 | qiagen single siRNA | 0.111 | -0.62 | 0.841 | -0.62 |
| Eif3i (eukaryotic translation initiation factor 3, subunit I) | SID315485733 | ambion single siRNA | 1.29 | 1.44 | 1.14 | 1.29 |
| Eif3i (eukaryotic translation initiation factor 3, subunit I) | SID315485734 | ambion single siRNA | 2.81 (active) | 3.81 | 1.81 | 1.29 |
| Eif3i (eukaryotic translation initiation factor 3, subunit I) | SID315485735 | ambion single siRNA | -4.12 (active) | -4 | -4.23 | 1.29 |
| Eif3i (eukaryotic translation initiation factor 3, subunit I) | SID315485736 | qiagen single siRNA | -0.412 | -1.21 | 0.387 | -0.672 |
| Eif3i (eukaryotic translation initiation factor 3, subunit I) | SID315485737 | qiagen single siRNA | -1.16 | -0.133 | -2.18 | -0.672 |
| Eif3i (eukaryotic translation initiation factor 3, subunit I) | SID315485738 | qiagen single siRNA | -0.867 | -1.84 | 0.109 | -0.672 |
| Serpina1b | SID315484902 | ambion single siRNA | -0.757 | 0.495 | -2.01 | -1.77 |
| Serpina1b | SID315484903 | ambion single siRNA | -0.767 | 0.0376 | -1.57 | -1.77 |
| Serpina1b | SID315484904 | ambion single siRNA | -2.44 (active) | -2.91 | -1.96 | -1.77 |
| Serpina1b | SID315484905 | qiagen single siRNA | 0.122 | 0.122 | – | 1.5 |
| Serpina1b | SID315484906 | qiagen single siRNA | 2.98 (active) | 0.805 | 5.15 | 1.5 |
| Serpina1b | SID315484907 | qiagen single siRNA | 2.2 (active) | 2.2 | – | 1.5 |
| Irf2bpl (interferon regulatory factor 2 binding protein-like) | SID315488469 | ambion single siRNA | 2.37 (active) | 2.32 | 2.42 | 1.25 |
| Irf2bpl (interferon regulatory factor 2 binding protein-like) | SID315488470 | ambion single siRNA | 2.32 (active) | 4.45 | 0.182 | 1.25 |
| Irf2bpl (interferon regulatory factor 2 binding protein-like) | SID315488471 | ambion single siRNA | -1.67 | -2.11 | -1.22 | 1.25 |
| Irf2bpl (interferon regulatory factor 2 binding protein-like) | SID315488472 | qiagen single siRNA | -0.93 | -2.38 | 0.518 | -0.533 |
| Irf2bpl (interferon regulatory factor 2 binding protein-like) | SID315488473 | qiagen single siRNA | 3.51 (active) | 2.86 | 4.15 | -0.533 |
| Irf2bpl (interferon regulatory factor 2 binding protein-like) | SID315488474 | qiagen single siRNA | -2.05 (active) | -1.58 | -2.51 | -0.533 |
